These are yes or no findings as the source states them, for the method shown. Binding seen in cells or lysates may run through a third protein. These calls come from enrichment with a bait or labelling near it, and not all partners need be listed.
B1: Protein S100-A8 (protein, UniProt P05109 1-93)
chain: MLTELEKALNSIIDVYHKYSLIKGNFHAVYRDDLKKLLETECPQYIRKKGADVWFKELDINTDGAVNFQEFLILVIKMGVAAHKKSHEESHKE
B2: Myelin proteolipid protein (protein, UniProt P60201 1-277)
chain: MGLLECCARCLVGAPFASLVATGLCFFGVALFCGCGHEALTGTEKLIETYFSKNYQDYEYLINVIHAFQYVIYGTASFFFLYGALLLAEGFYTTGAVRQIFGDYKTTICGKGLSATVTGGQKGRGSRGQHQAHSLERVCHCLGKWLGHPDKFVGITYALTVVWLLVFACSAVPVYIYFNTWTTCQSIAFPSKTSASIGSLCADARMYGVLPWNAFPGKVCGSNLLSICKTAEFQMTFHLFIAAFVGAAATLVSLLTFMIAATYNFAVLKLMGRGTKF
B3: Thy-1 membrane glycoprotein (protein, UniProt P04216 20-130)
chain: QKVTSLTACLVDQSLRLDCRHENTSSSPIQYEFSLTRETKKHVLFGTVGVPEHTYRSRTNFTSKYNMKVLYLSAFTSKDEGTYTCALHHSGHSPPISSQNVTVLRDKLVKC
B4: Myelin-oligodendrocyte glycoprotein (protein, UniProt Q16653 30-247)
chain: GQFRVIGPRHPIRALVGDEVELPCRISPGKNATGMEVGWYRPPFSRVVHLYRNGKDQDGDQAPEYRGRTELLKDAIGEGKVTLRIRNVRFSDEGGFTCFFRDHSYQEEAAMELKVEDPFYWVSPGVLVLLAVLPVLLLQITVGLIFLCLQYRLRGKLRAEIENLHRTFDPHFLRVPCWKITLFVIVPVLGPLVALIICYNWLHRRLAGQFLEELRNPF
B5: Neuronal membrane glycoprotein M6-a (protein, UniProt P51674 1-278)
chain: MEENMEEGQTQKGCFECCIKCLGGIPYASLIATILLYAGVALFCGCGHEALSGTVNILQTYFEMARTAGDTLDVFTMIDIFKYVIYGIAAAFFVYGILLMVEGFFTTGAIKDLYGDFKITTCGRCVSAWFIMLTYLFMLAWLGVTAFTSLPVYMYFNLWTICRNTTLVEGANLCLDLRQFGIVTIGEEKKICTVSENFLRMCESTELNMTFHLFIVALAGAGAAVIAMVHYLMVLSANWAYVKDACRMQKYEDIKSKEEQELHDIHSTRSKERLNAYT
B6: Single-stranded DNA-binding protein, mito (protein, UniProt Q04837 17-148)
chain: ESETTTSLVLERSLNRVHLLGRVGQDPVLRQVEGKNPVTIFSLATNEMWRSGDSEVYQLGDVSQKTTWHRISVFRPGLRDVAYQYVKKGSRIYLEGKIDYGEYMDKNNVRRQATTIIADNIIFLSDQTKEKE
B7: Protein S100-A9 (protein, UniProt P06702 1-114)
chain: MTCKMSQLERNIETIINTFHQYSVKLGHPDTLNQGEFKELVRKDLQNFLKKENKNEKVIEHIMEDLDTNADKQLSFEEFIMLMARLTWASHEKMHEGDEGPGHHHKPGLGEGTP
B8: Heat shock 70 kDa protein 12A (protein, UniProt O43301 1-675)
chain: MADKEAGGSDGPRETAPTSAYSSPARSLGDTGITPLSPSHIVNDTDSNVSEQQSFLVVVAVDFGTTSSGYAYSFTKEPECIHVMRRWEGGDPGVSNQKTPTTILLTPERKFHSFGYAARDFYHDLDPNEAKQWLYLEKFKMKLHTTGDLTMDTDLTAANGKKVKALEIFAYALQYFKEQALKELSDQAGSEFENSDVRWVITVPAIWKQPAKQFMRQAAYQAGLASPENSEQLIIALEPEAASIYCRKLRLHQMIELSSKAAVNGYSGSDTVGAGFTQAKEHIRRNRQSRTFLVENVIGEIWSELEEGDKYVVVDSGGGTVDLTVHQIRLPEGHLKELYKATGGPYGSLGVDYEFEKLLYKIFGEDFIEQFKIKRPAAWVDLMIAFESRKRAAAPDRTNPLNITLPFSFIDYYKKFRGHSVEHALRKSNVDFVKWSSQGMLRMSPDAMNALFKPTIDSIIEHLRDLFQKPEVSTVKFLFLVGGFAEAPLLQQAVQAAFGDQCRIIIPQDVGLTILKGAVLFGLDPAVIKVRRSPLTYGVGVLNRYVEGKHPPEKLLVKDGTRWCTDVFDKFISADQSVALGELVKRSYTPAKPSQLVIVINIYSSEHDNVSFITDPGVKKCGTLRLDLTGTSGTAVPARREIQTLMQFGDTEIKATAIDIATSKSVKVGIDFLNY
B9: Protein S100-A7 (protein, UniProt P31151 1-101)
chain: MSNTQAERSIIGMIDMFHKYTRRDDKIEKPSLLTMMKENFPNFLSACDKKGTNYLADVFEKKDKNEDKKIDFSEFLSLLGDIATDYHKQSHGAAPCSGGSQ
B10: Neurofilament light polypeptide (protein, UniProt P07196 1-543)
chain: MSSFSYEPYYSTSYKRRYVETPRVHISSVRSGYSTARSAYSSYSAPVSSSLSVRRSYSSSSGSLMPSLENLDLSQVAAISNDLKSIRTQEKAQLQDLNDRFASFIERVHELEQQNKVLEAELLVLRQKHSEPSRFRALYEQEIRDLRLAAEDATNEKQALQGEREGLEETLRNLQARYEEEVLSREDAEGRLMEARKGADEAALARAELEKRIDSLMDEISFLKKVHEEEIAELQAQIQYAQISVEMDVTKPDLSAALKDIRAQYEKLAAKNMQNAEEWFKSRFTVLTESAAKNTDAVRAAKDEVSESRRLLKAKTLEIEACRGMNEALEKQLQELEDKQNADISAMQDTINKLENELRTTKSEMARYLKEYQDLLNVKMALDIEIAAYRKLLEGEETRLSFTSVGSITSGYSQSSQVFGRSAYGGLQTSSYLMSTRSFPSYYTSHVQEEQIEVEETIEAAKAEEAKDEPPSEGEAEEEEKDKEEAEEEEAAEEEEAAKEESEEAKEEEEGGEGEEGEETKEAEEEEKKVEGAGEEQAAKKKD
B11: Myosin regulatory light chain 12A (protein, UniProt P19105 1-171)
chain: MSSKRTKTKTKKRPQRATSNVFAMFDQSQIQEFKEAFNMIDQNRDGFIDKEDLHDMLASLGKNPTDEYLDAMMNEAPGPINFTMFLTMFGEKLNGTDPEDVIRNAFACFDEEATGTIQEDYLRELLTTMGDRFTDEEVDELYREAPIDKKGNFNYIEFTRILKHGAKDKDD

The chains behind the UniProt entries cited, without tags or fusion partners. Residues count along the entry.
UniProt P17787, residues 26-502: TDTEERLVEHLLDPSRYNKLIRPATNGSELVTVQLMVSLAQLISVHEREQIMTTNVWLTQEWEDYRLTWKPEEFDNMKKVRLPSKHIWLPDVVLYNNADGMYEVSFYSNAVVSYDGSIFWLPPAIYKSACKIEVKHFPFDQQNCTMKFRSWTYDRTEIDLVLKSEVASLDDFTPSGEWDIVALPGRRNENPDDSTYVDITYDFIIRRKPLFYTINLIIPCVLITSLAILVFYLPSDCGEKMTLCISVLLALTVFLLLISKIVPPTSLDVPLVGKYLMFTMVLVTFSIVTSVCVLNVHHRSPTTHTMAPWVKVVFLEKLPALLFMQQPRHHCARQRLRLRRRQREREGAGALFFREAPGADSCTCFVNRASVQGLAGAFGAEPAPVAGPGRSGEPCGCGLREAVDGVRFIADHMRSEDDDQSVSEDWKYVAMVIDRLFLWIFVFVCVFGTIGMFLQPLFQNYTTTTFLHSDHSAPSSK

Biological target: Neuronal acetylcholine receptor subunit β2 (human (endogenous in temporal cortex)) (UniProt P17787)
Test: affinity purification with mass spectrometry; β2*-nAChRs captured overnight at 4°C on mAb295-coupled M270 Dynabeads from a 0.6% Triton X-100 extract of postmortem human temporal cortex membranes; homogenate cross-linked with 1 mM DSP before extraction; eluted with 0.1 M NH4OH, 1 mM EDTA, pH 10; label-free LC-MS/MS (Orbitrap Elite); 18 samples from tobacco users and non-users, with or without a mood disorder

binding, binds:
B1
B2
B3
B4
B5
B6
B7
B8
B9
B10
B11

Source: paper PMC4985585
